PubChem BioAssay AID1259273 | Sanger Institute | 2017
The deposit covers 160 reagents; this is a random part of them. 36 of all reagents (22%) count as active. 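Four distinct siRNA duplexes per gene; each call applies to one duplex and is not gene-level validation across cell lines.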 Entries without a mark were called inactive. Reagents against one gene are numbered here. Further read-outs or replicates are left out here. Reagent sequences are not shown. Not stated in the record: the amount of reagent, the time to read-out.

Assay: 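Find kinase knock-downs that boost killing of colorectal cancer cells by anchor drugs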 (follow-up of hits)
Cell system: human NCI-H630 colorectal cancer cells
Knock-down reagent: single siRNA against human genes
Treatment: anchor drugs BYL719 at 1 µM, cetuximab at 5 µg/ml or trametinib at 10 nM, or DMSO vehicle alone
Read-out: 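Replicate-averaged viability scaled to non-targeting control pool wells, plus per-drug synergy scores comparing knock-down with drug to knock-down only and drug only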
Scale: synergy score with trametinib and synergy score with BYL719 and synergy score with cetuximab: higher = stronger synergy, more synthetic lethal
Active means: 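a duplex counts as synthetic lethal if its averaged synergy score exceeds 0.10 with BYL719, cetuximab or trametinib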

{"gene": "MAP3K8 (mitogen-activated protein kinase kinase kinase 8)", "reagent no.": 1, "synergy score with trametinib": -0.103, "synergy score with BYL719": -0.146, "synergy score with cetuximab": -0.23}
{"gene": "MAP3K8 (mitogen-activated protein kinase kinase kinase 8)", "reagent no.": 2, "synergy score with trametinib": 0.00408, "synergy score with BYL719": -0.112, "synergy score with cetuximab": 0.0141}
{"gene": "MAP3K8 (mitogen-activated protein kinase kinase kinase 8)", "reagent no.": 3, "synergy score with trametinib": -0.0483, "synergy score with BYL719": -0.114, "synergy score with cetuximab": -0.0452}
{"gene": "MAP3K8 (mitogen-activated protein kinase kinase kinase 8)", "reagent no.": 4, "synergy score with trametinib": -0.0847, "synergy score with BYL719": -0.0611, "synergy score with cetuximab": 0.0354}
{"gene": "SYK (spleen associated tyrosine kinase)", "reagent no.": 1, "synergy score with trametinib": "0.252 (active)", "synergy score with BYL719": 0.161, "synergy score with cetuximab": 0.134}
{"gene": "SYK (spleen associated tyrosine kinase)", "reagent no.": 2, "synergy score with trametinib": 0.0865, "synergy score with BYL719": -0.146, "synergy score with cetuximab": 0.0117}
{"gene": "SYK (spleen associated tyrosine kinase)", "reagent no.": 3, "synergy score with trametinib": "0.158 (active)", "synergy score with BYL719": -0.0206, "synergy score with cetuximab": -0.0531}
{"gene": "SYK (spleen associated tyrosine kinase)", "reagent no.": 4, "synergy score with trametinib": -0.103, "synergy score with BYL719": -0.144, "synergy score with cetuximab": -0.23}
{"gene": "EPHA6 (EPH receptor A6)", "reagent no.": 1, "synergy score with trametinib": "0.102 (active)", "synergy score with BYL719": -0.0106, "synergy score with cetuximab": -0.053}
{"gene": "EPHA6 (EPH receptor A6)", "reagent no.": 2, "synergy score with trametinib": 0.0995, "synergy score with BYL719": 0.0289, "synergy score with cetuximab": -0.0649}
{"gene": "EPHA6 (EPH receptor A6)", "reagent no.": 3, "synergy score with trametinib": "0.132 (active)", "synergy score with BYL719": -0.173, "synergy score with cetuximab": 0.038}
{"gene": "EPHA6 (EPH receptor A6)", "reagent no.": 4, "synergy score with trametinib": -0.0324, "synergy score with BYL719": -0.146, "synergy score with cetuximab": -0.172}

Taken from above:
SYK (spleen associated tyrosine kinase) #4, synergy score with BYL719 → -0.144
Under “synergy score with trametinib”, SYK (spleen associated tyrosine kinase) #1 is entered as 0.252 (active)
